Reference: article PMC3229523, “Identification of Lactoferricin B Intracellular Targets Using an Escherichia coli Proteome Chip” (PLoS ONE, 2011)
Results are given in words; binding and its absence hold for the method and conditions named. Some entries that bind do so weakly or less than the wild type. One block for each substance: values may come before it.

The chains behind the UniProt entries cited, without tags or fusion partners. Residues count along the entry.
UniProt P0DP89: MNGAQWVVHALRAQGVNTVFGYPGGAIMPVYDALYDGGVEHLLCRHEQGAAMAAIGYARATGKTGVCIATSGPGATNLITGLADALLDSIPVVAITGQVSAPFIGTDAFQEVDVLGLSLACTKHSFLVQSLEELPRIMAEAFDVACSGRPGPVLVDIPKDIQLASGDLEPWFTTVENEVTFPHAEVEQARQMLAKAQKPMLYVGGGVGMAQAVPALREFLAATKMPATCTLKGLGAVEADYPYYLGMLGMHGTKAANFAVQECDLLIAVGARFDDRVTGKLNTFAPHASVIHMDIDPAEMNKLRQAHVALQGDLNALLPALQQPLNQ
UniProt P02769, residues 25-607: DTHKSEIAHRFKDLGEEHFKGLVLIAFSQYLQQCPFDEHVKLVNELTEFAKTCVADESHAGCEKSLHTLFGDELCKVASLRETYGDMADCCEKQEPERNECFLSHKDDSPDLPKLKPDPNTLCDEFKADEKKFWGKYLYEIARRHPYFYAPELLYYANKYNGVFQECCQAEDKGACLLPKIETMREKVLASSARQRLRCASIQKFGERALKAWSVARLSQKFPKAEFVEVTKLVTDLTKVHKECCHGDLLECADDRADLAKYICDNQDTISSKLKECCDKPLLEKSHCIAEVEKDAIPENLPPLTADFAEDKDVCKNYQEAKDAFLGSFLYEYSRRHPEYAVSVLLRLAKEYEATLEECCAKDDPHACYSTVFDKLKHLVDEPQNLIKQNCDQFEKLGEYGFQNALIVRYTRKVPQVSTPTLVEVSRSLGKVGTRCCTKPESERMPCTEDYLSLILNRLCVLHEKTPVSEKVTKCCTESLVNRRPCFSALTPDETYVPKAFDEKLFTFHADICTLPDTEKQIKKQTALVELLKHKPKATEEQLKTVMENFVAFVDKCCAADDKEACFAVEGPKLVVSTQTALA
UniProt P75838: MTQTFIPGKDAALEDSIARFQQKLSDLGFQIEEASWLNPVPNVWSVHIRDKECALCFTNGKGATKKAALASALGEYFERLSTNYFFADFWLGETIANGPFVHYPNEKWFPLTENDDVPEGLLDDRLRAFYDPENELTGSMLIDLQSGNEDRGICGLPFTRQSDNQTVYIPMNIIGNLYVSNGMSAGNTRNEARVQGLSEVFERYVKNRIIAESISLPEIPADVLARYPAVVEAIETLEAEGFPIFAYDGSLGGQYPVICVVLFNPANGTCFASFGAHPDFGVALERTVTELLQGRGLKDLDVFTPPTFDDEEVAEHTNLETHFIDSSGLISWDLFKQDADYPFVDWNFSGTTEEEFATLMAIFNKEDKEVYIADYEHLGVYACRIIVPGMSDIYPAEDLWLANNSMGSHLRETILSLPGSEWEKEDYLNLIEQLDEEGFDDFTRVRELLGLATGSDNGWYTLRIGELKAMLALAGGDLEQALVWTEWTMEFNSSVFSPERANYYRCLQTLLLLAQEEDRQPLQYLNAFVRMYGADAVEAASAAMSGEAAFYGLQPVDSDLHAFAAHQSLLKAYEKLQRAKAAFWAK
UniProt P0A8Z7: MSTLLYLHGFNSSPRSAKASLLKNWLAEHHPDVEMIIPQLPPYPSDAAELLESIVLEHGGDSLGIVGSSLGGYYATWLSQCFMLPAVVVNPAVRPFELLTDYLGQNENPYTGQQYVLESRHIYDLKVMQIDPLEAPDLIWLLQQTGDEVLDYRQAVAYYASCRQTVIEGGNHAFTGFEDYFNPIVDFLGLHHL

Tests used:
[1] = molecular target: T1, DyLight 549-labeled Lactoferricin B (UniProt P24627); assay: fluorescence polarisation; 100 nM DyLight 549-labeled LfcinB as tracer; two-fold serial dilution of protein from 0.4 µM to 0.025 µM in PBS, 0.005% BSA, 0.01% Triton X-100; room temperature, 1 h; compared with BSA; both purified
T1 sequence (peptide, DyLight 549 (NHS ester labelling, sites not stated)): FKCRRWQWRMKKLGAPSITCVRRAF

DsbG (E. coli K-12) = molecular target: T2, DsbG (E. coli K-12) (UniProt P77202); assay: peptide or protein array; E. coli proteome chip: purified His-tagged proteins printed in duplicate on Fullmoon slides, blocked with 1% BSA; 10 nM N-terminal biotinylated LfcinB with 1% BSA, room temperature, 1 h; detected with DyLight 649-labeled streptavidin, ratio to DyLight 549-labeled anti-His antibody; ProCAT normalisation, local cut-off; triplicate chips; both purified
T2 sequence: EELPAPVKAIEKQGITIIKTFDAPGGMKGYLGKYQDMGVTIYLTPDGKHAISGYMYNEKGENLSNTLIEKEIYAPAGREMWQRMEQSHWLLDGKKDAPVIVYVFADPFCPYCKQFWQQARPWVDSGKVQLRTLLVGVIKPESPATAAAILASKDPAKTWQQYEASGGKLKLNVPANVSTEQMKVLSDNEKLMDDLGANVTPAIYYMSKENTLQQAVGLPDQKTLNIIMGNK

DsbC (E. coli K-12) = molecular target: T3, DsbC (E. coli K-12) (UniProt P0AEG6); assay: as above
T3 sequence: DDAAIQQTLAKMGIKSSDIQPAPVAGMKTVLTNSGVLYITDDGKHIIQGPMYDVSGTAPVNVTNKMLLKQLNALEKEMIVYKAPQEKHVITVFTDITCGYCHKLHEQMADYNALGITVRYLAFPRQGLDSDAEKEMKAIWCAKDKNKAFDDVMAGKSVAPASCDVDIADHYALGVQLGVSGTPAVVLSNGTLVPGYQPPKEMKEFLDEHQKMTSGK

YjiV (E. coli K-12) = molecular target: T4, YjiV (E. coli K-12) (UniProt P39393); assay: as above
T4 sequence: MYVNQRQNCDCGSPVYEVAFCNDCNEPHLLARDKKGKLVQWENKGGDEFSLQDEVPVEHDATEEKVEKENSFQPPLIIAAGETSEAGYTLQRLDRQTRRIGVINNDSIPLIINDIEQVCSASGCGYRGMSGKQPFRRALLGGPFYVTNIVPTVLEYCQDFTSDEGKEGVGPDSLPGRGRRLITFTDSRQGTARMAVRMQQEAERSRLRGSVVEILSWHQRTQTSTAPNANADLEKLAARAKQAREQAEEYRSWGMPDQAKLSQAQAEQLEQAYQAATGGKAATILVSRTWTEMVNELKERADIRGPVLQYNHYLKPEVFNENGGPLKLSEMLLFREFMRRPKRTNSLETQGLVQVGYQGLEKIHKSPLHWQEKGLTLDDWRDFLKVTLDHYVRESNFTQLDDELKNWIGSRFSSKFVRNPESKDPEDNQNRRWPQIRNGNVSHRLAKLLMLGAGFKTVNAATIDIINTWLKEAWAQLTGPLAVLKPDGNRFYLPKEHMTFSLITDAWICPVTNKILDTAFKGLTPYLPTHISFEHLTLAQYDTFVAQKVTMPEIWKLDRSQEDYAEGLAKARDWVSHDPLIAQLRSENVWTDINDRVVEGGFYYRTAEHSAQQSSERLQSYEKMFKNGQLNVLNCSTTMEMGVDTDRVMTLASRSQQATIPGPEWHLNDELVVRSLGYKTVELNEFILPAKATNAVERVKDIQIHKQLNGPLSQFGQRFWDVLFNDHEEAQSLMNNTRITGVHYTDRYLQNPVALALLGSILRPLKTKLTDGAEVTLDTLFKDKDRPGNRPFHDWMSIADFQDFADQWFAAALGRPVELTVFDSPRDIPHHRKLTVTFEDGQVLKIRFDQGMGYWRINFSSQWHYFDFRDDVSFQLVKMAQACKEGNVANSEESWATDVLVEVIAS

YhbN (E. coli K-12) = molecular target: T5, YhbN (E. coli K-12) (UniProt P0ADV1); assay: as above
T5 sequence: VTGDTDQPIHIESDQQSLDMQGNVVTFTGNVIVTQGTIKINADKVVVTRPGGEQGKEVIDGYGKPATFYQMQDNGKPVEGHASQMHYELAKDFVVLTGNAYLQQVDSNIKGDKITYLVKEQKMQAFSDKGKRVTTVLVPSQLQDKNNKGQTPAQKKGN

IlvG (E. coli K-12) = IlvG (E. coli K-12) (UniProt P0DP89); assay: as above
YeeL (E. coli K-12) = molecular target: T6, YeeL (E. coli K-12) (UniProt P76349); assay: as above
T6 sequence: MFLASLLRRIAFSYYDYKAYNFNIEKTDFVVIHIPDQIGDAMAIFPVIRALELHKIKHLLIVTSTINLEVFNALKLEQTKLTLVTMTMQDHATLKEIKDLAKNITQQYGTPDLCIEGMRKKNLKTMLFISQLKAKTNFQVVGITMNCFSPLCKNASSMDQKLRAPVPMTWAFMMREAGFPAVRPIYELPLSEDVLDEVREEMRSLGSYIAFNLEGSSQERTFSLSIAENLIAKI

YrhA (E. coli K-12) = molecular target: T7, YrhA (E. coli K-12) (UniProt P46856); assay: as above
T7 sequence: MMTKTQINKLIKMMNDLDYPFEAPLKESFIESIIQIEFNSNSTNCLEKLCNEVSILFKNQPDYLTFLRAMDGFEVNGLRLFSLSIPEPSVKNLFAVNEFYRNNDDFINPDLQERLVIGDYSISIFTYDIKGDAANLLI

YifN (E. coli K-12) = molecular target: T8, YifN (E. coli K-12) (UniProt P56259); assay: as above
T8 sequence: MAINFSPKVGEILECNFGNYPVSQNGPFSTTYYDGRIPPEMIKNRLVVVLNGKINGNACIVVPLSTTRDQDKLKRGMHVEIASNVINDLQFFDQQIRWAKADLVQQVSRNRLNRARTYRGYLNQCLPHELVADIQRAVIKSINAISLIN

YlbE (E. coli K-12) = molecular target: T9, YlbE (E. coli K-12) (UniProt P77129); assay: as above
T9 sequence: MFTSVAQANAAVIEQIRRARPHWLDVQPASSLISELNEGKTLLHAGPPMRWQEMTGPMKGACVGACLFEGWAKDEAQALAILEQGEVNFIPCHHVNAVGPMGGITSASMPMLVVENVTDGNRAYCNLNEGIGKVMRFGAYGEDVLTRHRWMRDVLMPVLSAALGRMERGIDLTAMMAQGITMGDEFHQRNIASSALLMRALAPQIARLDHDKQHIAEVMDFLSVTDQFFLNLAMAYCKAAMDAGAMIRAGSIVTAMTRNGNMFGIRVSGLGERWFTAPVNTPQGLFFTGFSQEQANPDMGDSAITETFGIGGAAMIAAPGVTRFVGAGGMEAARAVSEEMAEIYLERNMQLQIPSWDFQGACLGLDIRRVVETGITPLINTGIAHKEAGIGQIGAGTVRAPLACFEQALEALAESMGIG

PtsA (E. coli K-12) = molecular target: T10, PtsA (E. coli K-12) (UniProt P32670); assay: as above
T10 sequence: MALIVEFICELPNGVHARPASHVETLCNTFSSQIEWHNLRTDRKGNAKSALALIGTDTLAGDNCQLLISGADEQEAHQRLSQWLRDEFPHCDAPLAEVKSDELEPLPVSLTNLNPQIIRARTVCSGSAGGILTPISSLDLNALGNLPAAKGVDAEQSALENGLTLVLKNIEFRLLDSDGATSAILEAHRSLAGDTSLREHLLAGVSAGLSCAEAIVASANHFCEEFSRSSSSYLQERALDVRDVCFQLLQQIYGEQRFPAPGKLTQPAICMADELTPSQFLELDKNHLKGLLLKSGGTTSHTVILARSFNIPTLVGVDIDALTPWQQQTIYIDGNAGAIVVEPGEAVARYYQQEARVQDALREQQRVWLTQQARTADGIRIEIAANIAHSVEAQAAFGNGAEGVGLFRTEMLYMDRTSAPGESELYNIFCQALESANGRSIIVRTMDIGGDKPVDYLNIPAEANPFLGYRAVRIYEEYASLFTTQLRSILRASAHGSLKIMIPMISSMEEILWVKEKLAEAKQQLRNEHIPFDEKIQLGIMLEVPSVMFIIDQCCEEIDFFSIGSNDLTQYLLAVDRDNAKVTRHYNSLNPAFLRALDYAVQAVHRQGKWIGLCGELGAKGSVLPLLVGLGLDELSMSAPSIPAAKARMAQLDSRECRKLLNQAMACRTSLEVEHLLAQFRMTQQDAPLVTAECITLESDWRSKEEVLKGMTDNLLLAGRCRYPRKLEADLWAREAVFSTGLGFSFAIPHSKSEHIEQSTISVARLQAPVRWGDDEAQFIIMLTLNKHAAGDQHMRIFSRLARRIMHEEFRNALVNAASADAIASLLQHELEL

[2] = molecular target: T1, DyLight 549-labeled Lactoferricin B; assay: fluorescence polarisation; data not shown; DyLight 549-labeled LfcinB with the tested proteins, compared with BSA; both purified

binding [1]: no binding (tested: 0.4 µM)
Substance: Bovine Serum Albumin (from UniProt P02769 25-607)

binding (DsbG (E. coli K-12)): binds
binding (DsbC (E. coli K-12)): binds
binding (YjiV (E. coli K-12)): binds
binding (YhbN (E. coli K-12)): binds
binding (IlvG (E. coli K-12)): binds
binding (YeeL (E. coli K-12)): binds
binding (YrhA (E. coli K-12)): binds
binding (YifN (E. coli K-12)): binds
binding (YlbE (E. coli K-12)): binds
binding (PtsA (E. coli K-12)): binds
Substance: N-terminal biotinylated Lactoferricin B (from UniProt P24627 36-60) (peptide)

binding [2]: binds
Substance: YcaO (from UniProt P75838 1-586)

binding [2]: binds
Substance: YqiA (from UniProt P0A8Z7 1-193)
